Reference: PubChem BioAssay AID602313 (National Center for Advancing Translational Sciences (NCATS), 2012)
Hit rate of the full screen: of about 390,000 compounds, about 760 (0.19%) were called active. Inconclusive means that the source gave no clear call. Such entries were picked first, then a sample of the others. Calls follow the shape of the dose curve; as a rule, active = well fitted inhibition curve with a large enough effect; inconclusive = small, poorly fitted or top-dose-only effect; inactive = flat fitted curve, though single readings scatter. A potency beside an inconclusive call is a rough fit, not a confirmed value.

Assay: qHTS for Inhibitors of Vif-A3F Interactions: qHTS; also: nearly all actives have a fitted effect of over 65% in size
Details: HeLa A3F-eYFP + Vif (tagged APOBEC3F with the HIV-1 protein that degrades it), YFP fluorescence increase; series mostly up to 46.1 µM
Procedure, shortened: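 Fluorescence increase (Ex 488/Em 500-530) after overnight compound treatment at 37 deg C flags inhibition of Vif-driven A3F-eYFP loss in stable HeLa A3F-eYFP/Vif cells seeded overnight beforehand.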
Potency is read from the fitted curve at half-maximal effect.

| SMILES | Potency |
| --- | --- |
| CCCn1nnc(NC(=O)c2ccc([N+](=O)[O-])cc2Cl)n1 | inconclusive: 10 µM [inhibitor, partial curve, poor fit] |
| O=C(COC(=O)c1ccco1)Nc1ccc([N+](=O)[O-])cc1Cl | inconclusive: 6.31 µM [inhibitor, single point] |
| CC1=CC(C)(C)N=C(Nc2nc(C)c3cc(C)cc(C)c3n2)N1 | inconclusive: 20 µM [inhibitor, single point] |
| Cc1ccc(NC(=S)NCc2ccc(Cl)cc2)c(OC(F)F)c1 | inconclusive: 25.1 µM [inhibitor, single point] |
| CCOC(=O)COc1c(Br)cc(/C=C2\SC(=O)N(CC(=O)N3CCCC3)C2=O)cc1OC | inactive |
| COc1ccc(C(=O)c2sc(NC(C)C)nc2N)cc1OC | inactive |
| C=CS(=O)c1sc(Cl)c(N2CCOCC2)c1[N+](=O)[O-] (stereo unspecified) | inconclusive: 5.62 µM [inhibitor, single point] |
| CC(C)CN1CCC(CN(C)Cc2nc(-c3cnccn3)no2)CC1 | inconclusive: 14.1 µM [inhibitor, single point] |
| O=C(CNc1ccccc1F)Nc1cccc(S(=O)(=O)N2CCCCC2)c1 | inconclusive: 6.31 µM [inhibitor, partial curve, poor fit] |
| O=c1c2ccccc2oc2ccc(NCCCN3CCOCC3)cc12 | inactive |
| CCCCCCCCCCCCCCCC[N+](C)(C)CC | inactive |
| CC1=CC(=NOC(=O)/C=C/c2ccccc2)C=C(C)C1=O | inconclusive: 20 µM [inhibitor, partial curve, poor fit] |
| O=C(NC(Nc1nc2ccc([N+](=O)[O-])cc2s1)(C(F)(F)F)C(F)(F)F)c1cccnc1 | inactive |
| CCCn1c(O)c(C=Nc2ccccc2)sc1=S | inconclusive: 15.8 µM [inhibitor, single point] |
| NC(=O)c1sc(=S)n2c1[nH]c(=O)c1sccc12 | inconclusive: 17.8 µM [inhibitor, partial curve, poor fit] |
| Cc1ccccc1NC(=S)NC(C)CCc1ccccc1 (stereo unspecified) | inconclusive: 35.5 µM [inhibitor, single point] |
| COCCNC(=O)/C(C#N)=C/c1cccs1 | inactive |
| Cc1cccc2c1NC1(CCCC1)CC2C (stereo unspecified) | inactive |
| COc1cccc2cc(-c3nnc(-c4ccccc4)o3)c(=O)oc12 | inconclusive: 5.62 µM [inhibitor, single point] |
| COC(=O)c1cc(NC(=O)c2cccc(C(F)(F)F)c2)c(=O)oc1C | inactive |
| CCc1cccc2c(C=C(C#N)C#N)cn(CC(=O)N3CCCCCC3)c12 | inconclusive: 35.5 µM [inhibitor, single point] |

3 entries out of the list, arranged by SMILES length, rising.

| SMILES | Potency |
| --- | --- |
| O=c1c2ccccc2oc2ccc(NCCCN3CCOCC3)cc12 | inactive |
| O=C(COC(=O)c1ccco1)Nc1ccc([N+](=O)[O-])cc1Cl | inconclusive: 6.31 µM [inhibitor, single point] |
| COC(=O)c1cc(NC(=O)c2cccc(C(F)(F)F)c2)c(=O)oc1C | inactive |
